According to US20180318383A1, “PEPTIDE HAVING NEURONAL LOSS PREVENTION AND REGENERATION EFFECTS, AND COMPOSITION CONTAINING SAME” (GEMVAX & KAEL CO., LTD., priority 2015, published 2018):

Test system: NSCs
Test: Penetration of FITC-labeled PEP1 into NSCs
Assay type: cell-based, rat

Sequence: EARPALLTSRLRFIPK (homo sapiens) [PEP1, hTERT-derived peptide consisting of 16 amino acids, telomerase location [611-626]]
- intracellular localization (10 μM FITC-labeled PEP1, normal environment): usually localized in the cytoplasm and the mitochondria
- PEP1 level in the cells (FITC-labeled PEP1, 0 to 24 hours): time-dependently increased
- intracellular localization in damaged NSCs (NSCs damaged by 20 μM Aβ25-35): some of the PEP1 penetrated into the nucleus
